Source: doi:10.1101/2024.01.30.578027
Where two headings read alike, the source gives them in different places. No constants are given. Whether binding was seen depends on the method and setting. For some of these results: In cells and extracts the contact can be indirect. Some binding calls cover weakened binding; strength is not graded here. For some of these results: Tags and fused reporters may be left off the sequences shown. Each block holds one molecule with its values, some of them ahead of it.

Columns and labels:
[1] = molecular target: T1, Arc (rat (endogenous in primary hippocampal neurons)) (UniProt Q63053); assay: proximity ligation
T1 sequence: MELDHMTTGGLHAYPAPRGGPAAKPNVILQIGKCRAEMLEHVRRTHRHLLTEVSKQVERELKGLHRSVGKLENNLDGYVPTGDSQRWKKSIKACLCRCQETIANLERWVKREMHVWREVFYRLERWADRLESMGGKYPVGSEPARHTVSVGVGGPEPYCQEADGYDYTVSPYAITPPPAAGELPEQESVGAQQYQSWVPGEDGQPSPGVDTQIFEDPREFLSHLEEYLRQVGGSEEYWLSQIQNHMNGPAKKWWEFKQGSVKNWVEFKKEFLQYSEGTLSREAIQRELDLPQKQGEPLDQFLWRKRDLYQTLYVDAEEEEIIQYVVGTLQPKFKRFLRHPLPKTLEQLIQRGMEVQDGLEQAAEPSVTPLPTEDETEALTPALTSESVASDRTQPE

[2] = molecular target: T2, Arc (mouse (endogenous in forebrain)) (UniProt Q9WV31); assay: co-IP
T2 sequence: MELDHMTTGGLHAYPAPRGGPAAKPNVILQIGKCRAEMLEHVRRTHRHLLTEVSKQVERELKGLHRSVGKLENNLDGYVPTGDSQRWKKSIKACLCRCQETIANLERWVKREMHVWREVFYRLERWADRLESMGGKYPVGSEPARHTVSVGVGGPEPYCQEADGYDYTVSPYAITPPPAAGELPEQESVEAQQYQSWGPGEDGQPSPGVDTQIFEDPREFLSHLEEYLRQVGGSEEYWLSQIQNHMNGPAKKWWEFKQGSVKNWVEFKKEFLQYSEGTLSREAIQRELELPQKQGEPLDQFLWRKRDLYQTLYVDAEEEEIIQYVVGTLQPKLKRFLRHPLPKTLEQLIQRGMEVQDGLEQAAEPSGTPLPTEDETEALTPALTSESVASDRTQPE

[3] = molecular target: T3, purified Arc protein (not stated (rat Arc cDNA named for the other plasmids)) (UniProt Q63053); assay: co-sedimentation
T3 sequence: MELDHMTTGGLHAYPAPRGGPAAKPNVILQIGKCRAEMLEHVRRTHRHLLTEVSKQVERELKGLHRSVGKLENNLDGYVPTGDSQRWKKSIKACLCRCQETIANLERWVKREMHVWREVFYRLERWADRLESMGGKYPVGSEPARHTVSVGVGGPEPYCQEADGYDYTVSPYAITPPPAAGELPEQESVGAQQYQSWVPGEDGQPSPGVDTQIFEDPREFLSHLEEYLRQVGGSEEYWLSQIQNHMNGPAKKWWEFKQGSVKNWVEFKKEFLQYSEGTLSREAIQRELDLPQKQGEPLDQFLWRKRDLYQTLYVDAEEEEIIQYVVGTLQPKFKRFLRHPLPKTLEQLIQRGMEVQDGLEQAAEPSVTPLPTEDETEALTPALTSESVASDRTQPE

[4] = molecular target: IRSp53 (mouse) (UniProt Q8BKX1); assay: co-IP
[5] = molecular target: T4, GST-IRSp53-SH3 (mouse) (UniProt Q8BKX1); assay: pull-down
T4 sequence: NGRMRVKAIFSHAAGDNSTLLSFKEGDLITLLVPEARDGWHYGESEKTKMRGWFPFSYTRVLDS

[6] = molecular target: GST-IRSp53 (mouse) (UniProt Q8BKX1); assay: pull-down
[7] = molecular target: IRSp53 (mouse) (UniProt Q8BKX1); assay: co-IP; remark: listed apart in the source

Molecule: IRSp53 (from UniProt Q6GMN2 1-535)
binding [1]: binds

Molecule: IRSp53 (from UniProt Q8BKX1-1 1-535)
binding [3]: binds

B1: purified Arc protein (protein, UniProt Q63053 1-396)
chain: MELDHMTTGGLHAYPAPRGGPAAKPNVILQIGKCRAEMLEHVRRTHRHLLTEVSKQVERELKGLHRSVGKLENNLDGYVPTGDSQRWKKSIKACLCRCQETIANLERWVKREMHVWREVFYRLERWADRLESMGGKYPVGSEPARHTVSVGVGGPEPYCQEADGYDYTVSPYAITPPPAAGELPEQESVGAQQYQSWVPGEDGQPSPGVDTQIFEDPREFLSHLEEYLRQVGGSEEYWLSQIQNHMNGPAKKWWEFKQGSVKNWVEFKKEFLQYSEGTLSREAIQRELDLPQKQGEPLDQFLWRKRDLYQTLYVDAEEEEIIQYVVGTLQPKFKRFLRHPLPKTLEQLIQRGMEVQDGLEQAAEPSVTPLPTEDETEALTPALTSESVASDRTQPE
binding [5]: binds | binding [6]: binds

Next, values leading:

binding [2]: binds
Molecule: IRSp53 (from UniProt Q8BKX1 1-535)

binding [4]: no binding
Molecule: myc-Arc^Δ20–40 (from UniProt Q63053 1-396)

binding [7]: binds
B2: myc-Arc (protein, UniProt Q63053 1-396)
chain: MELDHMTTGGLHAYPAPRGGPAAKPNVILQIGKCRAEMLEHVRRTHRHLLTEVSKQVERELKGLHRSVGKLENNLDGYVPTGDSQRWKKSIKACLCRCQETIANLERWVKREMHVWREVFYRLERWADRLESMGGKYPVGSEPARHTVSVGVGGPEPYCQEADGYDYTVSPYAITPPPAAGELPEQESVGAQQYQSWVPGEDGQPSPGVDTQIFEDPREFLSHLEEYLRQVGGSEEYWLSQIQNHMNGPAKKWWEFKQGSVKNWVEFKKEFLQYSEGTLSREAIQRELDLPQKQGEPLDQFLWRKRDLYQTLYVDAEEEEIIQYVVGTLQPKFKRFLRHPLPKTLEQLIQRGMEVQDGLEQAAEPSVTPLPTEDETEALTPALTSESVASDRTQPE
